This is one part of the list.
Compound: CC1Cc2ccccc2N1C(=O)C1CCCN(C1)C(=O)CCl (mixture of isomers) [TRIM25 ligand 11 (diastereomer mixture)]
Assay: probe-labelled cysteine peptide fold change vs DMSO (competition) (log2 fold change); higher = less target engagement (more negative = stronger competition)
Settings: THP-1, incubation time: 4 h
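Also: competitive chemoproteomic profiling in live THP-1 cells with an iodoacetamide desthiobiotin (IA-DTB) probe, comparing probe-labelled peptide intensities in compound-treated cells against DMSO-treated controls.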

By UniProt entry, the sequences of proteins in these tests, tags left out. Where a name states a change or a piece, a line headed by the entry shows the natural chain unless it says otherwise.
UniProt Q9H2P9: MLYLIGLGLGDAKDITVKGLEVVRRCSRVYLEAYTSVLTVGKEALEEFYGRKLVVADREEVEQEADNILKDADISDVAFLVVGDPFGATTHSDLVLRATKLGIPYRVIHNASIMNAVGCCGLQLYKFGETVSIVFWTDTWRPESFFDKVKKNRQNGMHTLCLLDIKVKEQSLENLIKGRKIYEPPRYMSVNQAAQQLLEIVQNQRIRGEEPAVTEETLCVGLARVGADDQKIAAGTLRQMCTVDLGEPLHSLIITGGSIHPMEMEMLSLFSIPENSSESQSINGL
UniProt Q96BY6: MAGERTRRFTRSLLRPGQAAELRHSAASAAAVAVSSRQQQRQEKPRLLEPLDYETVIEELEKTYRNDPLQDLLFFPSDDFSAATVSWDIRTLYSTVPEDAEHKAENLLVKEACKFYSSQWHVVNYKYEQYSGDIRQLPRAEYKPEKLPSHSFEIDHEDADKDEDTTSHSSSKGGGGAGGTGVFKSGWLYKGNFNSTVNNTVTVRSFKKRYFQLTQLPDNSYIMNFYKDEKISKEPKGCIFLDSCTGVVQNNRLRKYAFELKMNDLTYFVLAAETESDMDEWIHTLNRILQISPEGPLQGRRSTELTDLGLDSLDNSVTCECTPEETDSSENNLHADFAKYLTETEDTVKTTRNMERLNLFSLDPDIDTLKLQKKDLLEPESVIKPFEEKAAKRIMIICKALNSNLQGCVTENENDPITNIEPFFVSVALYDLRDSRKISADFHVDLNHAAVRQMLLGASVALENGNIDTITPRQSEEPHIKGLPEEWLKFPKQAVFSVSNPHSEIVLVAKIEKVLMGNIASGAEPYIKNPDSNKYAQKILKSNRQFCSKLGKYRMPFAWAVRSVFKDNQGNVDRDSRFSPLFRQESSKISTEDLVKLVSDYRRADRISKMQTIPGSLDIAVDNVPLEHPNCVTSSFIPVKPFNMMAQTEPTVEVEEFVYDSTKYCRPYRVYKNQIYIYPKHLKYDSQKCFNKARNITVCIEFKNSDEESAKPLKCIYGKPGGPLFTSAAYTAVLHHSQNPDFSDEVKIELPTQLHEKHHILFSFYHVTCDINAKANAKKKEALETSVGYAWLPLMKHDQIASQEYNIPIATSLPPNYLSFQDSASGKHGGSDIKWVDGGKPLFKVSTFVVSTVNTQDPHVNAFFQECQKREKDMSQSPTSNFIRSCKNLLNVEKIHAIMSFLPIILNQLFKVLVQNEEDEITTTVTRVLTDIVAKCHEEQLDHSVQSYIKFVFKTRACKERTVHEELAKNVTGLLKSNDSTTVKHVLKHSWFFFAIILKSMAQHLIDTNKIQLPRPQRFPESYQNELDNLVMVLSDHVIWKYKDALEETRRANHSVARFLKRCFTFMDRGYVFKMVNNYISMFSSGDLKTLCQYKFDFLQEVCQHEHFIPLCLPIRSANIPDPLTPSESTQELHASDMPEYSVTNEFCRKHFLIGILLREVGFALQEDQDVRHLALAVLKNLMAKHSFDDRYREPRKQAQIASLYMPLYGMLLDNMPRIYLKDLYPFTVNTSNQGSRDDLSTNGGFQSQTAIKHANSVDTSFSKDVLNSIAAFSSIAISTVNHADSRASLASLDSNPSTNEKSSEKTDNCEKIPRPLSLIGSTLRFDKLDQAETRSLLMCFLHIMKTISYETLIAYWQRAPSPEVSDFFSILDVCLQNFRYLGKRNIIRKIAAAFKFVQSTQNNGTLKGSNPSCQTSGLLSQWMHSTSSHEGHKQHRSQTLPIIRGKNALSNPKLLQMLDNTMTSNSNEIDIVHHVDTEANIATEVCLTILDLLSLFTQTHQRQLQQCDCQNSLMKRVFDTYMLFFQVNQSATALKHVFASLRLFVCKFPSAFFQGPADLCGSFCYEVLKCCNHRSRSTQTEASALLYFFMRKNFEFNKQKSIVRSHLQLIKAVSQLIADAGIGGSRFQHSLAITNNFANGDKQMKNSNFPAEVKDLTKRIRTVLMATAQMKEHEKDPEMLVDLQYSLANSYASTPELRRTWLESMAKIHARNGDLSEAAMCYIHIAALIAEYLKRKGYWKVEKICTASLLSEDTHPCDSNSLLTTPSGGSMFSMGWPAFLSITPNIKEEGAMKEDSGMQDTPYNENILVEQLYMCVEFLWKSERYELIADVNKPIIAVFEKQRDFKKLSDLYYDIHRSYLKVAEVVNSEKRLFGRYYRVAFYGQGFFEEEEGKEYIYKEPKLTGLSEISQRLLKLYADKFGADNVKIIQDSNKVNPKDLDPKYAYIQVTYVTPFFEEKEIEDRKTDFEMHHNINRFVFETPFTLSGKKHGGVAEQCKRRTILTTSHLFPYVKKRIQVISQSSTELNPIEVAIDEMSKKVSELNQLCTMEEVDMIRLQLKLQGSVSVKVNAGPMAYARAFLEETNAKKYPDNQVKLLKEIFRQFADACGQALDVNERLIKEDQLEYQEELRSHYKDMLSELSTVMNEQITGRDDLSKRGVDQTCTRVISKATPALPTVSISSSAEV
UniProt O43237, whole entry, looked up: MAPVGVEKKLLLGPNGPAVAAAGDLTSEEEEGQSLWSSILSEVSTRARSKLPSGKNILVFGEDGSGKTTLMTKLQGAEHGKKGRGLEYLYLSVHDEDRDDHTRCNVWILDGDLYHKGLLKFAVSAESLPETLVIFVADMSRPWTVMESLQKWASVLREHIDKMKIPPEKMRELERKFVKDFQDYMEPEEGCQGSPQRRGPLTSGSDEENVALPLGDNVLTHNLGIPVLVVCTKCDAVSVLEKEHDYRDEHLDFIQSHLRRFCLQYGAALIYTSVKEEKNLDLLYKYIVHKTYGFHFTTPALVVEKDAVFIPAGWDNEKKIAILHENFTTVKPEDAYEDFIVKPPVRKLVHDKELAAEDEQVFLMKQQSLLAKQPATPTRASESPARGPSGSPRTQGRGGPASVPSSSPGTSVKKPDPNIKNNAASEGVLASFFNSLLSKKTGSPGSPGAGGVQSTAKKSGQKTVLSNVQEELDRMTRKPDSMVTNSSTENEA
UniProt Q92785, whole entry, looked up: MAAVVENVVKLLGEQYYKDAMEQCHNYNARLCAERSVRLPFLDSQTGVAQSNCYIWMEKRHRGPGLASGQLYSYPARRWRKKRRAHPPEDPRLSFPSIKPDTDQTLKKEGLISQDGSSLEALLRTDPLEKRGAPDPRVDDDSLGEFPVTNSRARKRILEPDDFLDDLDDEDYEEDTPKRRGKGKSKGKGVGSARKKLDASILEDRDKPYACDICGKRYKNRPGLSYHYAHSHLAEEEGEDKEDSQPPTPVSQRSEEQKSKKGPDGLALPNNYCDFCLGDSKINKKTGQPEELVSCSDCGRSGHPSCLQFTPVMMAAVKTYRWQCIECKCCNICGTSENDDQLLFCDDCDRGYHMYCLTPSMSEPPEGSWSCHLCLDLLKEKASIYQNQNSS
UniProt Q99704: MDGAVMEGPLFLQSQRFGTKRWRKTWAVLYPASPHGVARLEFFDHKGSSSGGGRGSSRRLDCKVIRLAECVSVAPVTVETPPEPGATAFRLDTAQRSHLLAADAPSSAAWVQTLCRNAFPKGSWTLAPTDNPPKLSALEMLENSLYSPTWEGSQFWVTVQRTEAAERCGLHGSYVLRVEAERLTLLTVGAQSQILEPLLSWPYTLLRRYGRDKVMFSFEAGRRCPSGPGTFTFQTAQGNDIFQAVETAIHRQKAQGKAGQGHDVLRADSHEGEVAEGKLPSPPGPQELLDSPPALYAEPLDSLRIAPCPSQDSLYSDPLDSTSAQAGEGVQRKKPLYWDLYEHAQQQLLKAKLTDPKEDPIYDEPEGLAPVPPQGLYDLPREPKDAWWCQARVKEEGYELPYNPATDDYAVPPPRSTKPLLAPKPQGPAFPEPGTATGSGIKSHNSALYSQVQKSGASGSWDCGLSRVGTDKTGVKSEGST
UniProt Q7L591: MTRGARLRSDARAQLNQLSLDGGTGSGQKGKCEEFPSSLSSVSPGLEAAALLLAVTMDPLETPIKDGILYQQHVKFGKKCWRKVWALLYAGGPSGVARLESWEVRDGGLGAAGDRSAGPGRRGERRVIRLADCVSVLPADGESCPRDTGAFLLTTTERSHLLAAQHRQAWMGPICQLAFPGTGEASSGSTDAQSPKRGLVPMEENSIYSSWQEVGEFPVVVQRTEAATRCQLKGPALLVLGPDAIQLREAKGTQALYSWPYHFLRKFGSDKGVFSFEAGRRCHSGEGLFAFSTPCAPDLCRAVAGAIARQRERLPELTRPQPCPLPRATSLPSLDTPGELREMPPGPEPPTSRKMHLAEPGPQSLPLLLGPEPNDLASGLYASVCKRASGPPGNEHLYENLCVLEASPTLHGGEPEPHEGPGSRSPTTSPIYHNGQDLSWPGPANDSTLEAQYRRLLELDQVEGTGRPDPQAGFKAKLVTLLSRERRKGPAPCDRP
UniProt Q8NF50: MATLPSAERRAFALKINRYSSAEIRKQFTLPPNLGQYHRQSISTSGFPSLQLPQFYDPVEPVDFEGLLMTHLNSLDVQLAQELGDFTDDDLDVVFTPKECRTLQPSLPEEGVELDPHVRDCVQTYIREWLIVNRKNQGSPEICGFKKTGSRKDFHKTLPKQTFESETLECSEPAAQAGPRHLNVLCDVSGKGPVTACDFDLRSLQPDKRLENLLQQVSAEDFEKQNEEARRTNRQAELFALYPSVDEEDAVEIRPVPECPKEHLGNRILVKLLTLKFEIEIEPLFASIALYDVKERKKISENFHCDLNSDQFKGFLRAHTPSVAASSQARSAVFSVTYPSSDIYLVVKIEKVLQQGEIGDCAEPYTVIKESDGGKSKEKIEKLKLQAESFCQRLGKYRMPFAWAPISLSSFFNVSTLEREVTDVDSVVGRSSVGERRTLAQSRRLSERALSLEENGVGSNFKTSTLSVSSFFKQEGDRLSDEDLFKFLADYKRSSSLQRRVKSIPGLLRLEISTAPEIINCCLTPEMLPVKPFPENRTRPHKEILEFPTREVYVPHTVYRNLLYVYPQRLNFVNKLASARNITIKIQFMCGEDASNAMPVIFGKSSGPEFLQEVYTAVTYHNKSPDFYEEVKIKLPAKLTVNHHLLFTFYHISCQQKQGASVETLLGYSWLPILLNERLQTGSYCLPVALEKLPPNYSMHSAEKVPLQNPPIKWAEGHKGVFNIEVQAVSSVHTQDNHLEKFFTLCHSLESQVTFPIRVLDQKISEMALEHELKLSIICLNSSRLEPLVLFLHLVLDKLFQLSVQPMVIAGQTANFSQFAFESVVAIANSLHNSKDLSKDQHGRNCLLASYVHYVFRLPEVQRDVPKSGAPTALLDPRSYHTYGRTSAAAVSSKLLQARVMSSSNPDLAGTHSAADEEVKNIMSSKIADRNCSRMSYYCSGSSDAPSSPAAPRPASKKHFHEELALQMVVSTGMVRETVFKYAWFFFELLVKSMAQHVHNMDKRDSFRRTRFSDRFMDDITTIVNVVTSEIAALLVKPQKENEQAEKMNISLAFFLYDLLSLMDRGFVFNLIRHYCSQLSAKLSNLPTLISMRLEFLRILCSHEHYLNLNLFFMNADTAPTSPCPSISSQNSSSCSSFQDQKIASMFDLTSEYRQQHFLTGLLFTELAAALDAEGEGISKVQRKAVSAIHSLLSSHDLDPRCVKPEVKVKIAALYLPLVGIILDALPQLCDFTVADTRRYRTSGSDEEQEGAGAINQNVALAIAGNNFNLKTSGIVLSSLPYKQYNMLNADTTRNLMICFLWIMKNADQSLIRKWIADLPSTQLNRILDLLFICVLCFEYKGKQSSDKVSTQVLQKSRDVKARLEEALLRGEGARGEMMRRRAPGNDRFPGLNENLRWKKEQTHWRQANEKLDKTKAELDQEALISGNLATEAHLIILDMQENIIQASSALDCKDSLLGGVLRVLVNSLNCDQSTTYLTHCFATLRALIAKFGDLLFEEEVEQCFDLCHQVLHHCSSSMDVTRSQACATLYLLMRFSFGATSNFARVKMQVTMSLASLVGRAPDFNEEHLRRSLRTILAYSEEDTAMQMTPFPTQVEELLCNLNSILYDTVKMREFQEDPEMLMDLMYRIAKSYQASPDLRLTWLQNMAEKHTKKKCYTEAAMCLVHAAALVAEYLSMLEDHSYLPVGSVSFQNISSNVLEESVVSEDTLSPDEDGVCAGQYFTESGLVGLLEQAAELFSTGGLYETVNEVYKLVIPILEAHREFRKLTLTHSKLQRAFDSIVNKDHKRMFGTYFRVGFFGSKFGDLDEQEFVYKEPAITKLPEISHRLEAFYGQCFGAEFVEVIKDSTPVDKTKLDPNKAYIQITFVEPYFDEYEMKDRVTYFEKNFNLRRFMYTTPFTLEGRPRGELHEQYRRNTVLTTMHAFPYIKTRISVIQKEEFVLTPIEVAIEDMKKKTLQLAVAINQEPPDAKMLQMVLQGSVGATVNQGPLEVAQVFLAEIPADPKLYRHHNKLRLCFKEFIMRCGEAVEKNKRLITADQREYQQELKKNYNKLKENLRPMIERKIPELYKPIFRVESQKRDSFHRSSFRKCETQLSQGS
UniProt P60981: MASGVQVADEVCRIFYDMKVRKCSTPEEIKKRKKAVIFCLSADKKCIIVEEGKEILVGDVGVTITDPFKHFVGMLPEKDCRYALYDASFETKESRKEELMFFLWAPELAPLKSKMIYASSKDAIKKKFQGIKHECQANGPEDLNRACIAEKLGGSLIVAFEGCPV

Target	probe-labelled cysteine peptide fold change (10 µM)	probe-labelled cysteine peptide fold change (50 µM)
DYNC1H1_Q14204_2466_CLGSLFSMLHQACR (UniProt Q14204)	0.00628	0.122
DPH5_Q9H2P9_219_IRGEEPAVTEETLCVGLAR (UniProt Q9H2P9)	0.00924	-0.127
DOCK10_Q96BY6_2108_QFADACGQALDVNER (UniProt Q96BY6)	0.112	0.0382
DRG1_Q9Y295_195_GGINLTATCPQSELDAETVK (UniProt Q9Y295)	0.0674	-0.000169
DPH2_Q9BQC3_157_APVVLLSEPACAHALEALATLLRPR (UniProt Q9BQC3)	-0.0622	-0.0956
DYNC1LI2_O43237_234_CDAVSVLEK (UniProt O43237)	0.0491	0.294
DPYSL2_Q16555_439_THNSSLEYNIFEGMECR (UniProt Q16555)	0.0805	-0.109
DRAM2_Q6UX65_252_VEANLHGLTLYDTAPCPINNER (UniProt Q6UX65)	0.183	-0.00108
DYNC1H1_Q14204_4438_QDLADVVQVCEGKK (UniProt Q14204)	0.164	0.147
DOCK10_Q96BY6_1112_FDFLQEVCQHEHFIPLCLPIR (UniProt Q96BY6)	0.0428	-0.13
E2F4_Q16254_136_NVTEDVQNSCLAYVTHEDICR (UniProt Q16254)	0.0138	-0.106
DPF2_Q92785_24_DAMEQCHNYNAR (UniProt Q92785)	-0.119	-0.357
DTX3L_Q8TDB6_599_AMSYKPICPTCQTSYGIQK (UniProt Q8TDB6)	0.0628	-0.118
DPF2_Q92785_298_TGQPEELVSCSDCGR (UniProt Q92785)	0.26	0.181
E4F1_Q66K89_361_ALAPEPPVSQELPCSSEGSR (UniProt Q66K89)	0.214	0.115
DPH5_Q9H2P9_120_VIHNASIMNAVGCCGLQLYK (UniProt Q9H2P9)	0.276	0.259
DOHH_Q9BU89_122_QYSSDPVIEVAETCQLAVR (UniProt Q9BU89)	-0.239	-0.233
DYNC1H1_Q14204_2712_IQFVGACNPPTDPGRK (UniProt Q14204)	0.103	0.217
DOK1_Q99704_389_DAWWCQAR (UniProt Q99704)	-0.102	-0.0503
DNMT1_P26358_353_CIQCGQYLDDPDLK (UniProt P26358)	-0.0294	-0.0681
DOCK11_Q5JSL3_1641_NGDFSEAAMCYVHVAALVAEFLHR (UniProt Q5JSL3)	-0.41	0.125
DYNC1H1_Q14204_2076_LCDEQLSSQSHYDFGLR (UniProt Q14204)	-0.0206	-0.0936
DNTTIP1_Q9H147_156_QAEEECAHR (UniProt Q9H147)	-0.097	-0.232

Target	probe-labelled cysteine peptide fold change (10 µM)	probe-labelled cysteine peptide fold change (50 µM)
EAF1_Q96JC9_86_DCVLIINHDTGEYVLEK (UniProt Q96JC9)	0.0346	0.153
DYNC1H1_Q14204_3712_SSLQSQCLNEVLK (UniProt Q14204)	0.0297	0.0508
EAF1_Q96JC9_15_MNGTANPLLDREEHCLR (UniProt Q96JC9)	0.0349	0.0146
DUS1L_Q6P1R4_395_CDQCGNPK (UniProt Q6P1R4)	-0.0487	-0.0131
DUSP12_Q9UNI6_115_AVLVHCHAGVSR (UniProt Q9UNI6)	0.171	0.202
DYRK1A_Q13627_312_IVDFGSSCQLGQR (UniProt Q13627)	0.13	0.143
DYNC1H1_Q14204_3147_EAIVNSCVFVHQTLHQANAR (UniProt Q14204)	0.112	-0.208
DTX3L_Q8TDB6_41_SSGGGECTVSTQEHEAPGTFR (UniProt Q8TDB6)	-0.0681	-0.0561
DPYSL2_Q16555_132_SCCDYSLHVDISEWHK (UniProt Q16555)	0.359	-0.0333
DOK1_Q99704_308_IAPCPSQDSLYSDPLDSTSAQAGEGVQR (UniProt Q99704)	-0.0613	-0.556
DPP8_Q6V1X1_286_YSGYWWCPK (UniProt Q6V1X1)	0.162	-0.0125
DUS3L_Q96G46_358_RHQCEDIFGVQLEGAFPDTMTK (UniProt Q96G46)	0.0341	0.0134
DNMT1_P26358_1499_QFNTLIPWCLPHTGNR (UniProt P26358)	-0.000403	-0.0903
DPP9_Q86TI2_225_LTFCHQGLSNVLDDPK (UniProt Q86TI2)	0.148	0.0758
DOK3_Q7L591_133_LADCVSVLPADGESCPR (UniProt Q7L591)	0.0537	0.00634
DOK3_Q7L591_295_CHSGEGLFAFSTPCAPDLCR (UniProt Q7L591)	-0.0286	0.0448
DOCK8_Q8NF50_197_GPVTACDFDLR (UniProt Q8NF50)	-0.0826	-0.209
DOCK10_Q96BY6_2047_KVSELNQLCTMEEVDMIR (UniProt Q96BY6)	-0.0302	-0.0943
DPCD_Q9BVM2_164_HQLPLDDALLSFAHANCTLIISYQK (UniProt Q9BVM2)	0.156	0.141
DOCK8_Q8NF50_361_VLQQGEIGDCAEPYTVIK (UniProt Q8NF50)	0.147	0.0195
DSTN_P60981_12_ASGVQVADEVCR (UniProt P60981)	-0.0978	-0.147
DTX3L_Q8TDB6_175_VCGDFQDIER (UniProt Q8TDB6)	-0.0857	0.0555

— the supplement of paper PMC12067093, “Discovery and optimisation of a covalent ligand for TRIM25 and its application to targeted protein ubiquitination” (Chemical Science, 2025)
